In publication PMC7090148 (2020):
No constants are given. Whether binding was seen depends on the method and setting. In cells and extracts the contact can be indirect. Some entries that bind do so weakly or less than the wild type. Where a sequence is shown, tags or fusion partners need not be part of it.

What was measured:
[1] = target: T1, Myc-tagged OFD1 N-terminal region (residues 1-192), including the LisH motif (not stated (human or mouse cDNA cloned)) (UniProt O75665); assay: co-IP; Myc-OFD1 (full length or truncations) co-transfected with NTAP-TRAPPC8 or NTAP-TRAPPC12 in HEK293T cells (wild type; also TRAPPC12-/- for TRAPPC8 and TRAPPC8-/- for TRAPPC12); lysate in RIPA buffer (20 mM Tris pH 8.0, 100 mM NaCl, 0.1% NP-40); IP with anti-Myc antibody and protein A-sepharose, 4°C overnight; immunoblot
T1 sequence: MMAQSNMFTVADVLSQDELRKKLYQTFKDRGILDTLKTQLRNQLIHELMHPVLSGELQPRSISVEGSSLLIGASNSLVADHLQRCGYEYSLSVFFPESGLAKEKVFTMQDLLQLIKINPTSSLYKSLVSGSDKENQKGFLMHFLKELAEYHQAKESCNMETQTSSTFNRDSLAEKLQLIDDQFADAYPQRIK

[2] = target: T2, Myc-tagged OFD1 (oral-facial-digital syndrome 1), full length (human) (UniProt O75665); assay: as above
T2 sequence: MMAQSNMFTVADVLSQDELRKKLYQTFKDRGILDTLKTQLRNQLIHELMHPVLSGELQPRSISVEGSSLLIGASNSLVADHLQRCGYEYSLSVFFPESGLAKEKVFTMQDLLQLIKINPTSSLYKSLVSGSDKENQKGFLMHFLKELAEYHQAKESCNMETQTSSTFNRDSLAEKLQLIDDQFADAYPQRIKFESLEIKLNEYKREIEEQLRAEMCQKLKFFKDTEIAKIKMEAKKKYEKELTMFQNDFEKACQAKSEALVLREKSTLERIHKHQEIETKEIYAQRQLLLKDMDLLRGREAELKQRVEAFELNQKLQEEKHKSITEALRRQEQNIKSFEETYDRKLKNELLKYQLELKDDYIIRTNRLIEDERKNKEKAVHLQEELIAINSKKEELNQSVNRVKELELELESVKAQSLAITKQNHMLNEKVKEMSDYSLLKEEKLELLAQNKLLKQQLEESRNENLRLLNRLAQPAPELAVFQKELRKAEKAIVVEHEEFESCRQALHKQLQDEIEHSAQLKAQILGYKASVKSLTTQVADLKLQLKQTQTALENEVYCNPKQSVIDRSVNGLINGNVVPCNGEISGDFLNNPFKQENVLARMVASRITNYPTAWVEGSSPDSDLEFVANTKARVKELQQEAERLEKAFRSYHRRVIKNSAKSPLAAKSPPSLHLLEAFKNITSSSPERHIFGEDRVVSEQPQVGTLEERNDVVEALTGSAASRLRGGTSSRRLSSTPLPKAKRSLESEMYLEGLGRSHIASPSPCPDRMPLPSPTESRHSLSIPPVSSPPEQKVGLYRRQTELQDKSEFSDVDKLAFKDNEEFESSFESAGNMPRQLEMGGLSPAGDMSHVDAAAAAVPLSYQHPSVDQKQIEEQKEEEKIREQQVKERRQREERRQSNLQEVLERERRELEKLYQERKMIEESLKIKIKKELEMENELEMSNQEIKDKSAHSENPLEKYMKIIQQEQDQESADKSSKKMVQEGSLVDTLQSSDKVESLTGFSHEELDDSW

B1: NTAP-tagged TRAPPC12 (protein, UniProt Q8K2L8 1-797)
chain: METAKDGEQSPSEASPSAQAGPENIPEPMSREEESQPLYHEETIDLGGDEFASEENEPTSEGSHNFGDKLNEHMMESVLISDSPNNSEGDVGDLGCLQDVGEPPRGATDHRLPSSTDKEVVDTLSNGSETDGDDTPRDISDMTPDSRASLKEDSTQEDVTSMPALENAATEEVGPKDSLAPREEQTSEVSSNQSSSKDEPLPVCTIFSQATATPSQPHLFLQDGFESQMVKSPSFSSTSETSAKTPPPMVQPSPSLSTFFGDTMSSNSLASDFFDSFTTSTFISVSNPNAGSPVPEKLSSLTAPVGEKSPDSTSPSYSTRMDRSESGVSRAPLDVPESPKPFSQIQAVFAGSDDPFATALSMSEMDRRNDAWLPSQATREVLMSVATQQYGTVFIDKENLTMPGLKFDNIQGDAVKDLMLRFLGEKAAAKRQVLNASSVEQSFVGLKQLISCRNWRAAVDLCGRLLTAHGQGYGKNGLPTSHTTDSLQLWFVRLALLVKLGLFQNAEMEFEPFGNLDQPDLYYEYYPHVYPGRRGSMVPFSMRILHAELQQYLGNPQESLDRLHRVKTVCSKILANLEQGLAEDGGLSSVTQESRQASVQLWRSRLGRVLYSMANCLLLMKDYVLAVDAYLTVIKYYPEQEPQLLSGIGRILLQIGDIKTAEKYFQDVEKVTQKLDGLQGKIMVLMNRAFLYLGQNNFAEAHKFFTEILRMDPTNAVANNNAAVCLLYLGKLKDSLRQLEAMVQQDPRHYLHESVLFNLTTMYELESSRSMQKKQSLLEAVASKEGDSFNTQCLKLA
In the case of B1, the binding [1] is reported as “binds” and the binding [2] is reported as “binds”.
